Among all 220,000 compounds or so, about 770 (0.35%) were called active. The inconclusive results got no clear call from the source; some entries with a clear call stand among them for comparison. No stated cut-off is given here; in the data, active means binding response below about 49% or above about 150%; inconclusive means no clear call, values can overlap the other calls; inactive means in between.
biological target: Guanine nucleotide-binding protein G(o) subunit alpha (Homo sapiens) (UniProt P09471); test: RGS7-Galphao binding modulators, primary screen, biochemical, multiplexed bead flow cytometry (AID 1439); conditions: at 10 µM, actives lie on both sides;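 further: fluorescent Galphao held in activated GDP-AlF4 state binding bead-coupled RGS7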

Amino acid sequences for entries named in this document (tags omitted).
UniProt P09471, whole entry, looked up: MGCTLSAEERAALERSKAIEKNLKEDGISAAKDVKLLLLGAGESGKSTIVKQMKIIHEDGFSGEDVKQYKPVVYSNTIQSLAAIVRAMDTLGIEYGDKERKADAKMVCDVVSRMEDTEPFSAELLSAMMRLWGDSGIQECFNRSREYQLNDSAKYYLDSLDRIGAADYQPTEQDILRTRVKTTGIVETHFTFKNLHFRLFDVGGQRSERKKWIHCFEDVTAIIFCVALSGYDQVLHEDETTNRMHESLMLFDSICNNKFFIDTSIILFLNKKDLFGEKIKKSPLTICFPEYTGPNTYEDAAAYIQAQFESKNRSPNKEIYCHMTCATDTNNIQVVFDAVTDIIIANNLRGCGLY

SMILES	binding response (% of control)
CC1CCN(C(c2ccc(N(C)C)cc2)c2nnnn2Cc2ccc(F)cc2)CC1 (stereo not drawn)	inactive: 98.9%
COc1cccc(N2CCN(CC(=O)c3c(C)[nH]c4ccccc34)CC2)c1	active: 17.4%
COCc1[nH]c(=S)[nH]c(=O)c1C	inconclusive: 172%
C/C=C(/C)C(=O)O[C@@H]1c2cc3c(c(OC)c2-c2c(cc(OC)c(OC)c2OC)[C@@H](OC(C)=O)[C@@H](C)[C@H]1C)OCO3	inconclusive: 117%
Cc1ccc(OC(C)C(=O)N=Nc2c(O)[nH]c3ccc([N+](=O)[O-])cc23)cc1 (stereo not drawn)	inactive: 103%
O=C(Nc1ccc(Br)c(C(F)(F)F)c1)c1ccc(C(F)(F)F)cc1	inconclusive: 75.7%
CC1CN(CCOCCSc2ccccc2)CC(C)O1 (stereo not drawn)	inconclusive: 111%
Cc1cccc(N/C(N)=N/c2nc(CSc3ccc(Cl)cc3)cc(=O)[nH]2)c1	inconclusive: 87.8%
COc1cccc(NC(=O)/C=C/c2ccc([N+](=O)[O-])cc2)c1	inconclusive: 108%
Cc1ccc(Oc2ccc(Cl)cc2N)cc1	inconclusive: 94.1%
COCCCNC(=S)N/N=C/c1ccc(N(C)C)cc1Cl	inconclusive: 42.7%
O=C(c1ccco1)N1CCN(CCOc2ccccc2)CC1	inconclusive: 56.9%
Clc1ccccc1N=C1SCCS1	inconclusive: 111%
COC(=O)Cc1[nH]nc2c1C(c1cc(OC)c(OC)c(OC)c1)C(C#N)=C(N)O2 (stereo not drawn)	inconclusive: 98.4%
CC(C)(C)c1ccc(CCC2OCC(CN3CCOCC3)O2)cc1 (stereo not drawn)	inconclusive: 77.3%
O=C(COC(=O)c1cc(=O)[nH]c2ccccc12)NC1CCCCCCC1	inconclusive: 106%
Cc1[nH]c(=O)c(C(=O)c2cc(Cl)ccc2O)cc1C(=O)O	inconclusive: 115%
Cc1sc(C(=O)Nc2ccc3ccccc3c2)cc1CC(=O)O	inactive: 105%
Cc1nn(C(C)c2n[nH]c(=S)n2-c2cccc(Cl)c2)c(C)c1[N+](=O)[O-] (stereo not drawn)	inactive: 107%
O=C(CNCC1CCCCC1)Nc1ccc(N2CCCCC2)cc1	inconclusive: 71.8%

SMILES	binding response (% of control)
CC(=O)c1cc(CN2CCN(C3CCN(C(C)C)CC3)C(CCO)C2)cs1 (stereo not drawn)	inactive: 108%
CC1=C/C(=N\NC(=S)NCCc2ccccc2)CC(C)(C)C1	inactive: 100%
COc1ccccc1C1=Nn2c(COc3ccccc3)nnc2SC1	inconclusive: 64%
O=C(CSC(=S)N1CCOCC1)Nc1ncc2c(n1)CC(c1ccco1)CC2=O (stereo not drawn)	inconclusive: 103%
CC1CCN(C(=O)C(C)c2ccc([N+](=O)[O-])cc2)CC1 (stereo not drawn)	inconclusive: 103%
COc1ccc(C2OC3=C(Nc4cc(C)c(C)cc4N3)C2=O)cc1 (stereo not drawn)	inconclusive: 59.9%
O=C(O)c1cccc(NS(=O)(=O)c2ccc(NC(=O)c3ccco3)cc2)c1	inconclusive: 106%
CCc1ccc(-c2nc(CS(=O)CC(=O)O)c(C)o2)cc1 (stereo not drawn)	inconclusive: 88.6%
O=S(=O)(/N=C(/Nc1ccccc1)c1ccccc1O)c1ccccc1	inconclusive: 109%
COc1ccc(-c2csc(/N=C/N(C)C)n2)cc1OC	inconclusive: 104%
O=[N+]([O-])c1ccccc1S(=O)(=O)N1CCN(Cc2ccsc2)CC1	inconclusive: 104%
C/C(=N/NC(=O)c1ccccc1)c1ccc(NC(=O)C(F)(F)F)cc1	inconclusive: 73.8%
O=C(O)Cc1nc(-c2cccnc2)sc1-c1ccc(Br)cc1	inconclusive: 118%
CC(=O)c1ccc(NC(=O)CNCC(c2ccccc2)N(C)C)cc1 (stereo not drawn)	inconclusive: 94.7%
CN(C)/C(=N\O)c1c(Cl)cccc1Cl	inconclusive: 105%
Oc1c(Br)cc(Br)cc1C=NCc1ccc(F)cc1	inactive: 102%
Cc1ccc(NC(=O)CCC(=O)NNC(=O)NC2CCCCC2)c(C)c1	inactive: 90.3%
COc1ccc(CCNC(=O)/C=C/c2cc(OC)c(OC)c(OC)c2)cc1OC	inconclusive: 97%
CC(=O)Nc1nc(SCC(=O)NCc2ccc(F)cc2)[nH]c(=O)c1NC(=O)c1cccs1	inconclusive: 92.3%
S=C(NCCc1ccccc1)N1CCN(C2CCCCC2)CC1	inconclusive: 91.9%

SMILES	binding response (% of control)
CN(C)S(=O)(=O)c1ccc(Cl)c(NC(=O)COC(=O)C2CCCO2)c1 (stereo not drawn)	inconclusive: 91.9%
O=C(O)c1ccccc1/C=N/Nc1ccc(S(=O)(=O)N2CCOCC2)cc1[N+](=O)[O-]	inconclusive: 101%
Cc1[nH]c(=O)[nH]c(=O)c1N1CCOCC1	inconclusive: 86%
C#CCNc1c2c(nc3ncnn13)CC(C)CC2 (stereo not drawn)	inconclusive: 116%
Cc1ccc(C2C(C(=O)c3cccs3)=C(O)C(=O)N2c2ccc(S(N)(=O)=O)cc2)cc1 (stereo not drawn)	inconclusive: 99.1%
CC1(C)C2([N+](=O)[O-])CN3CC1([N+](=O)[O-])CN(C2)C3c1ccc(O)c(O)c1 (stereo not drawn)	inconclusive: 109%
C=CCn1c(O)c(C2=c3ccccc3=NC2=O)sc1=Nc1ccc(O)cc1	inconclusive: 103%
CC(=O)Nc1nc(C)c(Oc2ccc(C)cc2)c(=O)[nH]1	inconclusive: 83%
N#CC1=C(N)Oc2c(ccc3cccnc23)C1c1ccccc1 (stereo not drawn)	inconclusive: 458%
Cc1nn(C)c(C)c1NC(=O)/C(C#N)=C\N(C)C	inconclusive: 55.5%
Cc1nc(-c2ccccc2)nc2sc(C(=O)c3ccc(F)cc3)c(N)c12	inconclusive: 62.1%
CC1CC(NC(=O)/C(C#N)=C/c2ccc[nH]2)CC(C)(C)C1 (stereo not drawn)	inconclusive: 83%
Cc1ccc(S(=O)(=O)Nn2c(O)c(C=C3N=c4ccccc4=N3)sc2=S)cc1	inconclusive: 138%
Cc1cccc(-n2c(O)c(C=Nc3ccccc3)c3ccccc3c2=O)n1	inconclusive: 90.9%
CCOC(=O)c1cc(-c2ccc(OC)cc2OC)nn1-c1ccc(C(=O)O)cc1	inactive: 104%
CC(C)NC(=O)COC(=O)/C=C/c1ccco1	inactive: 89.4%
CC(C)Nc1nc(NC(N)=S)nc(NC(C)C)n1	inactive: 100%
COC(=O)CCC(=O)OC1(C)C(=O)C2=CN(C3CCCC3)C(c3ccc(OC)cc3)=CC2=C(Br)C1=O (stereo not drawn)	inconclusive: 40.4%

By substructure: the compounds so far containing a CF3 group.
SMILES	binding response (% of control)
O=C(Nc1ccc(Br)c(C(F)(F)F)c1)c1ccc(C(F)(F)F)cc1	inconclusive: 75.7%
C/C(=N/NC(=O)c1ccccc1)c1ccc(NC(=O)C(F)(F)F)cc1	inconclusive: 73.8%
